Measured values as given in paper PMC4503440.
No constants are given. Whether binding was seen depends on the method and setting. Binding seen in cells or lysates may run through a third protein. Some binding calls cover weakened binding; strength is not graded here. Where a sequence is shown, tags or fusion partners need not be part of it. One block for each binder: values may come before it.

Target: T1, HA-tagged wild-type αPIX (human) (UniProt Q15052)
T1 sequence: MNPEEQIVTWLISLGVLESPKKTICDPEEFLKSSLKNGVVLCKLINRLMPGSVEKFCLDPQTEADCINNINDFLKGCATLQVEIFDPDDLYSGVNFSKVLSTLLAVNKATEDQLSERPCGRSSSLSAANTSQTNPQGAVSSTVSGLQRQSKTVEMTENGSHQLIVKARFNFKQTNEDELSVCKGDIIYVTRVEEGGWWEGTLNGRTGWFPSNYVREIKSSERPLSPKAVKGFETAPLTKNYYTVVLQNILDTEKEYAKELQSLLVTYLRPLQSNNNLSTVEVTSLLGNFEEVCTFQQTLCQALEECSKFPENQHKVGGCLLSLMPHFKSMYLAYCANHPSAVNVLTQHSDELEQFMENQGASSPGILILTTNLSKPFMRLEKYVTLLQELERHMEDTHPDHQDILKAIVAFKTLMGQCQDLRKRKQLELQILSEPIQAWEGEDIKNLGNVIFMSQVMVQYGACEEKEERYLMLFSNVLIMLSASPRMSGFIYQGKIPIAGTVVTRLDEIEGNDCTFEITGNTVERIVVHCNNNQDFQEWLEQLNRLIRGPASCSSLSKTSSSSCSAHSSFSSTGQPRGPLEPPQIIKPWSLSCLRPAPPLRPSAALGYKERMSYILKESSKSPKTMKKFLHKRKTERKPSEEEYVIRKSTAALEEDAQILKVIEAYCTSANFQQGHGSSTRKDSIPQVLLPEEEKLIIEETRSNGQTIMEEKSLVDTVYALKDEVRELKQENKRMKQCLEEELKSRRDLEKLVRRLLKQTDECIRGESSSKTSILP
Assay: co-IP; transfected COS-7 cells; lysis in 150 mM Tris-HCl pH 8.0, 50 mM NaCl, 1 mM EDTA, 0.5% Nonidet P40; HA-αPIX precipitated on anti-HA agarose 2 h at 4°C; blot with anti-Cbl or anti-FLAG; in Fig 2A cells in 10% FBS or serum-starved and stimulated with 5 ng/ml EGF for 5-60 min

- binding: binds
B1: Flag-tagged wild-type human GIT2 (protein, UniProt Q14161-1 1-759)
chain: MSKRLRSSEVCADCSGPDPSWASVNRGTFLCDECCSVHRSLGRHISQVRHLKHTPWPPTLLQMVETLYNNGANSIWEHSLLDPASIMSGRRKANPQDKVHPNKAEFIRAKYQMLAFVHRLPCRDDDSVTAKDLSKQLHSSVRTGNLETCLRLLSLGAQANFFHPEKGNTPLHVASKAGQILQAELLAVYGADPGTQDSSGKTPVDYARQGGHHELAERLVEIQYELTDRLAFYLCGRKPDHKNGQHFIIPQMADSSLDLSELAKAAKKKLQSLSNHLFEELAMDVYDEVDRRETDAVWLATQNHSALVTETTVVPFLPVNPEYSSTRNQGRQKLARFNAHEFATLVIDILSDAKRRQQGSSLSGSKDNVELILKTINNQHSVESQDNDQPDYDSVASDEDTDLETTASKTNRQKSLDSDLSDGPVTVQEFMEVKNALVASEAKIQQLMKVNNNLSDELRIMQKKLQTLQSENSNLRKQATTNVYQVQTGSEYTDTSNHSSLKRRPSARGSRPMSMYETGSGQKPYLPMGEASRPEESRMRLQPFPAHIGRSALVTSSSSLPSFPSTLSWSRDESARRASRLEKQNSTPESDYDNTPNDMEPDGMGSSRKGRQRSMVWPGDGLVPDTAEPHVAPSPTLPSTEDVIRKTEQITKNIQELLRAAQENKHDSYIPCSERIHVAVTEMAALFPKKPKSDMVRTSLRLLTSSAYRLQSECKKTLPGDPGSPTDVQLVTQQVIQCAYDIAKAAKQLVTITTKENNN

- binding: binds
B2: Flag-tagged wild-type rat Git1 (protein, UniProt Q9Z272 1-770)
chain: MSRKGPRAEVCADCSAPDPGWASISRGVLVCDECCSVHRSLGRHISIVKHLRHSAWPPTLLQMVHTLASNGANSIWEHSLLDPAQVQSGRRKANPQDKVHPIKSEFIRAKYQMLAFVHKLPCRDDDGVTAKDLSKQLHSSVRTGNLETCLRLLSLGAQANFFHPEKGTTPLHVAAKAGQTLQAELLVVYGADPGSPDVNGRTPIDYARQAGHHELAERLVECQYELTDRLAFYLCGRKPDHKNGHYIIPQMADRSRQKCMSQSLDLSELAKAAKKKLQALSNRLFEELAMDVYDEVDRRENDAVWLATQNHSTLVTERSAVPFLPVNPEYSATRNQGRQKLARFNAREFATLIIDILSEAKRRQQGKSLSSPTDNLELSARNQSDLDDQHDYDSVASDEDTDQEPLPSAGATRNNRARSMDSSDLSDGAVTLQEYLELKKALATSEAKVQQLMKVNSSLSDELRKLQREIHKLQAENLQLRQPPGPVPVPSLPSERAEHTLMGPGGSTHRRDRQAFSMYEPGSALKPFGGAPGDELATRLQPFHSTELEDDAIYSVHVPAGLYRIRKGVSASSVTFTPSSPLLSSSQEGSRHASKLSRHGSGAESDYENTQSGEPLLGLEGKRFLELSKEDELHAELESLDGDPDPGLPSTEDVILKTEQVTKNIQELLRAAQEFKHDSFVPCSEKIHLAVTEMASLFPKRPALEPVRSSLRLLNASAYRLQSECRKTVPPEPGAPVDFQLLTQQVIQCAYDIAKAAKQLVTITTREKKQ
